About 420 (32%) of roughly 1,300 compounds were called active. The shares of active, inactive and inconclusive entries below differ from those in the screen. Calls follow the shape of the dose curve; as a rule, active = well fitted inhibition curve with a large enough effect; inconclusive = small, poorly fitted or top-dose-only effect; inactive = no such curve, though single readings can be large or run the other way. Potencies of inconclusive entries are doubtful fits and often do not repeat.
The compounds below were run against C-terminal-binding protein 1 (Homo sapiens) (UniProt Q13363) (assay: qHTS for Inhibitors of the Phosphatase Activity of Eya2: Carboxyl-terminal binding protein (CtBP) Counterscreen for Cherry-picked Compounds). Conditions: purified protein-protein binding, AlphaScreen, 3 h; activity change, negative = inhibition: at 46.1 µM (top of the series).
How it was run: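 Cherry-picked compounds (final 2.5 nM–46 uM) were incubated 2 h at RT with 25 nM CtBP-6xHIS and 25 nM GST-E1A. Alpha beads (20 ug/mL) were then added for 1 h, light-protected; DMSO and E1A peptide inhibitor wells set the normalization.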
% is scaled to controls: 0 for no effect and ±100 for the full control effect; potency is read from the fitted curve at half-maximal effect.
Also: nearly all actives have a fitted effect of over 65% in size.

Q: For `COc1ccccc1N1CCN(/N=C/c2cc([N+](=O)[O-])ccc2Cl)CC1`, which Potency is on record?
A: inconclusive: 15.1 µM [inhibitor, single point]

Q: How did the Potency turn out when `COc1ccc(N2CCN(C(c3cccs3)C(C)NS(=O)(=O)c3ccccc3)CC2)cc1` (stereo not given) was run?
A: inconclusive: 12 µM [inhibitor, partial curve]

Q: With `O=C(Nc1cccc(S(=O)(=O)N2CCOCC2)c1)c1ccc(Cl)nc1` as the compound, how does the Potency read?
A: inconclusive: 16.9 µM [inhibitor, single point]

Q: For `Cn1cccc1/C=N/N1CCN(Cc2cccc3ccccc23)CC1`, which Potency is on record?
A: inconclusive: 15.1 µM [inhibitor, partial curve]

Q: For `O=C(O)c1ccc(Nc2nc(-c3cccnc3)cs2)cc1O`, which Potency is on record?
A: inconclusive: 19 µM [inhibitor, single point]

Q: With `CN(Cc1ccccc1N1CCCC1)C(=O)c1cc2cc(Cl)ccc2o1` as the compound, how does the Potency read?
A: inconclusive: 13.5 µM [inhibitor, partial curve]

Q: With `CCCCC1=CC2=C(c3ccco3)C(=O)C(C)(OC(=O)c3ccc(OC)cc3)C(=O)C2=CN1CCc1ccccn1` (stereo not given) as the compound, how does the “activity change, negative = inhibition” value read?
A: inactive: -24.5%

Q: For `CC(=O)Nc1ccc(S(=O)(=O)NCc2ccc3[nH]c(C)cc3c2)cc1`, which “activity change, negative = inhibition” value is on record?
A: inactive: -27.3%

Q: For `Cc1cccc2cn[nH]c12`, which “activity change, negative = inhibition” value is on record?
A: inactive: 3.72%

Q: How did the “activity change, negative = inhibition” value turn out when `O=C(C1=C[C@H](c2ccccc2)C[C@H](OCc2ccc(CO)cc2)O1)N1CCN(Cc2ccccc2)CC1` was run?
A: inactive: -14%

Q: For `Cc1ccc(C)c(OC(C)C(=O)Nc2ccc(S(=O)(=O)Nc3nccs3)cc2)c1` (stereo not given), which Potency is on record?
A: inconclusive: 26.9 µM [inhibitor, single point]

Q: `COc1cccc(Nc2nc(-c3sc(NC(=O)c4ccco4)nc3C)cs2)c1` was tested. Which Potency did it give?
A: inconclusive: 16.9 µM [inhibitor, single point]

Q: Which Potency does the source give for `NC(=O)c1ccc(-c2nnc(Nc3ccc(S(N)(=O)=O)cc3)c3ccccc23)cc1` here?
A: inconclusive: 6.01 µM [inhibitor, full curve]

Q: Which Potency does the source give for `CCC(CC)COC(=O)C1=C(C)NC(=O)NC1c1ccc(N(C)C)cc1` (stereo not given) here?
A: inconclusive: 12 µM [inhibitor, partial curve]

Q: For `CN(C)c1ccc(/C=C2\CCc3cc(N)ccc32)cc1`, which Potency is on record?
A: inconclusive: 8.49 µM [inhibitor, partial curve]

Q: With `Cc1ccc(OCCSc2nc3ccccc3n2CCC(=O)O)c(C(C)C)c1` as the compound, how does the “activity change, negative = inhibition” value read?
A: inactive: 0.945%

Q: `O=C(Oc1ccc(C(=S)N2CCOCC2)cc1)c1ccccc1` was tested. Which “activity change, negative = inhibition” value did it give?
A: inactive: -24.6%

Q: For `CC(=O)Oc1ccccc1C(=O)Oc1ccc(/C=N/n2cnnc2)cc1`, which Potency is on record?
A: inconclusive: 15.1 µM [inhibitor, single point]

Q: `CN1CCN(C(=S)c2cn(Cc3ccc(Br)cc3)c3ccccc23)CC1` was tested. Which Potency did it give?
A: inconclusive: 16.9 µM [inhibitor, partial curve]

Q: `Cc1ccccc1OCCn1cc(C(=S)N2CCN(C)CC2)c2ccccc21` was tested. Which Potency did it give?
A: active: 15.1 µM

Q: For `Cc1cc(C)c2[nH]c3nc(SCC(=O)O)nnc3c2c1`, which Potency is on record?
A: inconclusive: 16.9 µM [inhibitor, single point]

Q: How did the “activity change, negative = inhibition” value turn out when `Cc1cc2nc(/N=C(\N)NC(=O)N3c4ccccc4Sc4ccccc43)nc(C)c2cc1C` was run?
A: inactive: -24.2%

Q: With `COc1ccc(N(CC(=O)Nc2nc3ccc(C)cc3s2)S(=O)(=O)c2c(C)nn(C)c2C)cc1` as the compound, how does the “activity change, negative = inhibition” value read?
A: inactive: -8.97%

Q: For `Cc1c(C)n(CC(O)CNc2ccccc2)c2ccccc12` (stereo not given), which Potency is on record?
A: inconclusive: 15.1 µM [inhibitor, single point]

Q: For `CCOc1ccc(NC(=O)c2sccc2-n2cccc2)cc1`, which “activity change, negative = inhibition” value is on record?
A: inactive: -14.2%

Q: Which Potency does the source give for `Cc1nnc2sc(SCC(=O)Nc3ccc(Br)cc3)nn2c1=O` here?
A: active: 2.13 µM

Q: Which Potency does the source give for `COc1ccc2sc(-c3ccccc3OC)c(-c3ccc(OCCN4CCCC4)cc3)c2c1` here?
A: inconclusive: 13.5 µM [inhibitor, partial curve]

Q: For `COc1cc(NC(=O)Nc2cccc(Cl)c2)c(OC)cc1NC(=O)CN1CCCCC1`, which Potency is on record?
A: inconclusive: 16.9 µM [inhibitor, partial curve]

Q: For `Nc1cc2c(cc1C(=O)c1ccccc1F)OCCO2`, which Potency is on record?
A: inconclusive: 15.1 µM [inhibitor, single point]

Q: `Clc1ccc(CSc2ccc(-c3ccccn3)nn2)cc1` was tested. Which Potency did it give?
A: inconclusive: 3.79 µM [inhibitor, full curve]

Q: `COc1ccc(NC(=O)c2nn(C)c(=O)c3ccccc23)cc1S(=O)(=O)Nc1ccccc1Cl` was tested. Which Potency did it give?
A: inconclusive: 19 µM [inhibitor, single point]

Q: Which Potency does the source give for `O=C1/C(=C\c2cccc([N+](=O)[O-])c2O)SC(=S)N1Cc1ccccc1` here?
A: active: 8.49 µM

Q: `O=C(O)CCc1c2ccc(=O)c(O)c-2oc2c(O)c(O)ccc12` was tested. Which Potency did it give?
A: active: 16.9 µM

Q: How did the Potency turn out when `CC(=O)c1ccc(S(=O)(=O)Nc2ccc(-c3ccc4nnc(C)n4n3)cc2)cc1` was run?
A: inconclusive: 15.1 µM [inhibitor, partial curve]

Q: With `COc1cc(NC(=O)CSc2ccc(-c3ccccn3)nn2)cc(OC)c1` as the compound, how does the Potency read?
A: active: 1.9 µM

Q: How did the “activity change, negative = inhibition” value turn out when `O=C(Nc1nc2ccc(F)cc2s1)C1=NN(c2ccccc2)C(=O)CC1` was run?
A: inactive: -3.84%

Q: How did the Potency turn out when `Cc1cc(C)c2nc3nc(C)c(C)cc3c(N)c2c1` was run?
A: inconclusive: 15.1 µM [inhibitor, partial curve]

Q: For `COc1ccc2oc(C(=O)Nc3cccc(S(=O)(=O)N4CCOCC4)c3)c(C)c2c1`, which “activity change, negative = inhibition” value is on record?
A: inactive: 2.02%

Q: `COC(=O)CSc1nnc(CNc2nc(-c3ccccc3)cs2)n1C` was tested. Which Potency did it give?
A: inconclusive: 16.9 µM [inhibitor, partial curve]

Q: Which Potency does the source give for `CCOc1ccc2nc(N(CCN(C)C)C(=O)c3cc4ccccc4cc3OC)sc2c1` here?
A: inconclusive: 15.1 µM [inhibitor, partial curve]

Q: `COc1cc(-c2nnc(NC(=O)CS(=O)(=O)c3ccc(F)cc3)o2)cc(OC)c1OC` was tested. Which Potency did it give?
A: inconclusive: 21.3 µM [inhibitor, single point]

Q: For `O=C(O)COc1ccc(-c2nc(-c3ccccc3)c(-c3ccccc3)[nH]2)cc1`, which Potency is on record?
A: inconclusive: 16.9 µM [inhibitor, single point]

Q: `COc1cc(N(C)C)c(OC)cc1/C=C1\C=Cc2ccccc21` was tested. Which Potency did it give?
A: active: 5.36 µM

Q: `Cc1ccc(N2CCN(CC(O)COc3cccc4ccccc34)CC2)cc1` (stereo not given) was tested. Which Potency did it give?
A: inconclusive: 15.1 µM [inhibitor, partial curve]

Q: How did the Potency turn out when `Cc1cccc(C2c3[nH]c4ccccc4c3CCN2C(=O)c2cc(-c3cccn3C)n[nH]2)n1` (stereo not given) was run?
A: inconclusive: 15.1 µM [inhibitor, partial curve]

From PubChem BioAssay AID720541 (National Center for Advancing Translational Sciences (NCATS), 2013)
